Data: patent US20260125455A1
No constants are given. Whether binding was seen depends on the method and setting. A result given as binding can be weak or reduced; the word gives no strength.

Legend:
[1] = target: C6: 1-934_10xHis (human); assay: ELISA, wells coated with the C6 construct, 1C9 detected with HRP goat anti-mouse IgG; duplicate wells
[2] = target: C6Δ1-79: SP_79-934_10xHis (human); assay: as above
[3] = target: Protein G (Octet biosensors); assay: BLI (Octet RED384), loading on biosensors

B1: MoC601 MoG1K (mouse anti-C6 monoclonal antibody 1C9) (antibody, V domains shown)
VH: QVQLQQSGAELVKPGASVKISCKASGYAFSDYWMNWVKQRPGKGLEWIGQIYPGDDDTNYNGKFKGKATLTADKSSSTAYMQLSSLTSEDSAVYFCAREGYYGYTYVEYFDVWGTGTTVTVSS
VL: QIVLTQSPAIMSVSPGEKVTLTCSASSSVSYMHWYQQKSGTSPKRWIYDTSKLASGVPARFSGSGSGTSYSLTISSMEAEDAATYYCQQWTSNPLTFGAGTKLELR
For B1, the binding [1] was “binds” and the binding [2] was “binds”.

B2: MoC601 HuG4K (chimeric C601 antibody) (antibody, human IgG4 S228P, kappa, V domains shown)
VH: QVQLQQSGAELVKPGASVKISCKASGYAFSDYWMNWVKQRPGKGLEWIGQIYPGDDDTNYNGKFKGKATLTADKSSSTAYMQLSSLTSEDSAVYFCAREGYYGYTYVEYFDVWGTGTTVTVSS
VL: QIVLTQSPAIMSVSPGEKVTLTCSASSSVSYMHWYQQKSGTSPKRWIYDTSKLASGVPARFSGSGSGTSYSLTISSMEAEDAATYYCQQWTSNPLTFGAGTKLELRR
B2 was tested, and the binding [3] was “binds”.
